Results deposited as PubChem BioAssay AID1259259 (Sanger Institute, 2017).
Assay: 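Kinase silencing that lowers colorectal cancer cell viability alone or with drugs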 (primary screen). Cell system: SW1463 human colorectal cancer cells. Reagents: siRNA pool against human genes. Conditions: DMSO vehicle, or one anchor drug: BYL719 at 1 µM, cetuximab at 5 µg/ml, or trametinib at 10 nM. Read-out: 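Viability relative to control pool 2 (non-targeting) averaged over replicates, robust z-score for knock-down with no drug, and for each anchor drug the mean synergy score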. Direction: robust z-score, knock-down alone: higher = more viable cells after knock-down; viability, knock-down alone: higher = more viable cells; synergy score with BYL719: higher = stronger synergy (synthetic lethal) with drug. Rule for the call: 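a robust z-score under -3 for knock-down with no drug marks the gene as essential, meaning viability loss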. Calls: active = essential: viability loss from knock-down alone; inactive = no change from knock-down alone.
Shown is a random part of 794 deposited reagents. 9 of them (1.1%) count as active. 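Calls rest on knock-down alone, not drug synergy; viability values seem capped at 1.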 Not all columns of the deposit are shown. Not stated in the record: the amount of reagent, the time to read-out.

| Target gene | robust z-score, knock-down alone | viability, knock-down alone (fraction of control) | synergy score with BYL719 | call |
| --- | --- | --- | --- | --- |
| DGKA | 0.0278 | 0.929 | -0.0706 | inactive |
| BCOR | -1.81 | 0.811 | -0.163 | inactive |
| ADCK5 | 1.13 | 1 | 0.0439 | inactive |
| GSK3A | -0.594 | 0.889 | -0.0204 | inactive |
| FASTK | -1.27 | 0.846 | -0.15 | inactive |
| DAPK2 | 1.03 | 0.994 | 0.00926 | inactive |
| PFKFB3 | 0.498 | 0.96 | 0.0557 | inactive |
| PFKFB2 | 1.01 | 0.992 | 0.0752 | inactive |
| ACVR2B | -2.39 | 0.774 | -0.183 | inactive |
| SMAD4 | 0.242 | 0.943 | 0.0673 | inactive |
| IKBKE | 1.13 | 1 | 0.0352 | inactive |
| GOLGA5 | 0.124 | 0.936 | -0.00263 | inactive |
| IPPK | 0.457 | 0.957 | 0.0347 | inactive |
| PCK1 | -0.0256 | 0.926 | 0.0479 | inactive |
| AKT3 | -0.588 | 0.89 | -0.0535 | inactive |
| STK32B | -1.12 | 0.855 | -0.00295 | inactive |
| EGFR | -1.13 | 0.855 | 0.0096 | inactive |
| TSSK6 | -0.483 | 0.897 | 0.102 | inactive |
| NTRK1 | 0.0588 | 0.931 | -0.0353 | inactive |
| STK11 | -0.463 | 0.898 | 0.0274 | inactive |

The list goes on; the last 3 above are carried over.
| Target gene | robust z-score, knock-down alone | viability, knock-down alone (fraction of control) | synergy score with BYL719 | call |
| --- | --- | --- | --- | --- |
| TSSK6 | -0.483 | 0.897 | 0.102 | inactive |
| NTRK1 | 0.0588 | 0.931 | -0.0353 | inactive |
| STK11 | -0.463 | 0.898 | 0.0274 | inactive |
| MAP3K10 | 0.309 | 0.947 | -0.0525 | inactive |
| PIP4K2C | 1.13 | 1 | 0 | inactive |
| BRSK1 | 0.309 | 0.947 | -0.0525 | inactive |
| HASPIN | -1.11 | 0.856 | -0.00324 | inactive |
| UCK1 | 0.48 | 0.959 | 0.124 | inactive |
| PIK3R4 | 0.28 | 0.946 | -0.0517 | inactive |
| HCK | -2.32 | 0.779 | -0.0327 | inactive |
| UCKL1 | -0.486 | 0.896 | 0.0101 | inactive |
| TYRO3 | -1.55 | 0.828 | -0.0815 | inactive |
| AK7 | -0.262 | 0.911 | -0.0687 | inactive |
| WIPF1 | 1.02 | 0.993 | -0.00528 | inactive |
| DYRK4 | -1.89 | 0.806 | -0.0162 | inactive |
| PIK3C2A | -2.27 | 0.782 | -0.00994 | inactive |
| PIK3CG | -0.664 | 0.885 | 0.0311 | inactive |
